In PubChem BioAssay AID662 (National Center for Advancing Translational Sciences (NCATS), 2007) one finds AC50 data, which are given here for 67 compounds.

Several values for one entry are separate records, joined by “and”; a condition that tells them apart may be missing. Identical values can stand only once. This is one part of the list. These are further read-outs of the screen, such as a control signal, another cell line or another target. No call is given for them. Compounds called inactive in the main read-out are mostly missing here. Words in brackets tell the shape of the fitted curve; partial curves, single points and poor fits give uncertain potencies.

By AC50 is commonly meant the midpoint of the concentration-response curve, whichever way the signal moves.

The nature of this assay: Cell signaling CRE-BLA (Fsk stim). The conditions noted are these: CHO CRE-bla reporter (cAMP response element driving beta-lactamase), forskolin EC10, beta-lactamase ratio; measured here: 460 nm blue channel. In a few lines: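 Using CellSensor CRE-bla CHO cells in Opti-MEM with 0.5% dialyzed FBS, compounds were titrated with EC10 NKH 477 for 3 h at 37 °C. CCF4 ratio (460/530 nm) gave %Activity; AC50 derived.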
Take `O=C(Cc1ccccc1)Nc1ccccc1CO`: the AC50 was 0.0251 µM [falling, full curve, poor fit]. As to `O=C(Nc1ccccc1-c1nnn(CC(=O)N2CCN(c3ccccc3)CC2)n1)c1cccs1`, the AC50 is 0.00316 µM [falling, full curve, poor fit]. Under `Cc1nc(COC(=O)c2c(C)nn(-c3ccccc3)c2C)cs1` stands 7.94 µM [rising, partial curve]; under `COC(=O)C1=C(C)NC(C)=C([N+](=O)[O-])[C@@H]1c1ccccc1C(F)(F)F`, 20 µM [falling, partial curve, poor fit]; under `CCOC(=O)N1CCN(C(=O)Nc2ccc(Cl)cc2Cl)CC1`, 25.1 µM [falling, single point]. In the case of `O=C1c2ccc(Oc3ccc4c(c3)C(=O)N(CCCO)C4=O)cc2C(=O)N1CCCO` it was 5.01 µM [rising, partial curve]; in that of `CCOC(=O)N1CCN(C(=O)C2CCCN(c3ncnc4c3sc3cccc(F)c34)C2)CC1` (configuration not stated), 10 µM [rising, single point]; in that of `CC[C@]1(O)C[C@H]2CN(CCc3c([nH]c4ccccc34)[C@](C(=O)OC)(c3cc4c(cc3OC)N(C=O)[C@H]3[C@@](O)(C(=O)OC)[C@H](OC(C)=O)[C@@]5(CC)C=CCN6CC[C@]43[C@H]65)C2)C1`, 1.26 µM [rising, full curve]. In the case of `CCOc1nc(-c2ccc(C)cc2)ccc1-c1noc(COC)n1` it was 5.01 µM [rising, single point].

As for `COc1cc2c(cc1NCc1ccccn1)oc1ccccc12`, the AC50 was 25.1 µM [rising, single point]. In the case of `Cc1ccc(S(=O)(=O)N2CCN(S(C)(=O)=O)C2)cc1` it was 0.398 µM [falling, partial curve]. As to `CCOC(=O)/C=C1\SCC(=O)N1Cc1ccc(Br)cc1`, the AC50 is 20 µM [falling, partial curve]. Under `CCc1ccc(CCC(=O)Nc2nccs2)o1` stands 0.398 µM [falling, partial curve, poor fit].

`CC(OC1=CC(=O)CCC1)C(=O)c1ccccc1` (configuration not stated): the AC50 is 0.00316 µM [falling, full curve]. Under `CCCCCn1c(CN2CCN(Cc3ccccc3)CC2)nc2c1c(=O)n(C)c(=O)n2C` stands 25.1 µM [rising, single point]; under `Cc1ccc(-n2c3c(cc(C(=O)NC4CCSC4=O)c2=O)C(=O)CC(C)(C)C3)cc1` (configuration not stated), 0.00398 µM [falling, full curve, poor fit]; under `COc1cc(Nc2cc(C)nc3nc(C)nn23)cc(OC)c1OC`, 2.51 µM [rising, full curve]. As for `O=C(NCc1cccs1)c1ccc2c(c1)ncn2C1CCCC1`, the AC50 is 12.6 µM [rising, single point]. In the case of `c1ccc(-n2cnnc2SCc2nc3ccccc3s2)cc1` it was 10 µM [rising, single point]; in that of `O=C(CCc1nc2ccccc2[nH]1)N1CCc2ccccc2C1`, 12.6 µM [rising, partial curve]. In the case of `CCCCCCCCCCCC1=C(O)C(=O)C=C(O)C1=O` it was 31.6 µM [falling, single point] and 20 µM [falling, partial curve]. Take `O=C(c1cccc(S(=O)(=O)N2CCOCC2)c1)N1CCCCCC1`: the half-maximal activity concentration (AC50) was 5.01 µM [falling, single point]. In the case of `COc1ccc(C(=O)C2CCN(S(=O)(=O)c3ccc4c(c3)OCCO4)CC2)cc1` it was 25.1 µM [falling, single point]; in that of `COc1ccc2cc(CCNC(=O)c3c(-c4ccccc4Cl)noc3C)c(=O)[nH]c2c1`, 10 µM [rising, partial curve]; in that of `COc1ccc2nc3oc(C(=O)N4CCCCC4)cc3cc2c1`, 12.6 µM [rising, partial curve, poor fit]. In the case of `O=C(Cc1ccc(F)cc1)OCC(=O)c1cc2ccccc2o1` it was 0.126 µM [falling, full curve, poor fit]. Under `CCOC(=O)CSc1nc2c(cnn2-c2ccc(C)cc2)c(=O)[nH]1` stands 0.00316 µM [falling, full curve, poor fit]. With `CCc1nc2oc3ccccc3c(=O)c2c(=O)n1Cc1ccc(OC)cc1`, the concentration at half-maximal activity (AC50) is 6.31 µM [rising, partial curve]. As for `O=C(CCCCn1c(=O)[nH]c2ccccc2c1=O)N1CCN(c2ncccn2)CC1`, the AC50 was 12.6 µM [rising, partial curve].

`O=C(c1ccc(Br)o1)N1CCN(c2ccc(F)cc2)CC1`: the AC50 was 3.16 µM [rising, full curve, poor fit]. In the case of `CCn1c(=O)c2c(cnn2C)c2ccccc21` it was 25.1 µM [rising, single point]. Regarding `COc1cccc(-c2cc(C(F)(F)F)n3nc(N)nc3n2)c1`, the AC50 is 1.58 µM [falling, partial curve]. `COc1c2ccoc2cc2oc(=O)ccc12`: the AC50 was 25.1 µM [rising, partial curve, poor fit] and 15.8 µM [rising, partial curve]. Consider `COc1ccc(-c2cc(C(=O)NCc3cccs3)no2)cc1OC`, for which the AC50 is 12.6 µM [rising, partial curve].

Consider `COCCSc1nnc(NC(=O)C2CCCO2)s1` (configuration not stated), for which the AC50 was 12.6 µM [rising, single point]. In the case of `Clc1ccc(CC[C@H](Cn2ccnc2)Sc2c(Cl)cccc2Cl)cc1` it was 12.6 µM [falling, single point]. In the case of `O=S(=O)(c1ccc(F)cc1)N1CN(Cc2ccco2)c2nc3ccccc3nc21` it was 25.1 µM [rising, single point].

In the case of `CCSc1nc2nc(C)cc(C)n2n1`, the AC50 is 0.126 µM [falling, full curve, poor fit]. Under `CCCn1nnc(NC(=O)c2cccc(OCC(C)C)c2)n1` stands 2 µM [falling, partial curve, poor fit]; under `CC1CCN(c2nc(-c3ccncc3)nc3ccccc23)CC1`, 3.16 µM [rising, full curve]; under `CCCCn1c(=S)[nH]c2c(oc3ccc(Cl)cc32)c1=O`, 0.00398 µM [falling, full curve, poor fit]. As for `O=S(=O)(NCc1ccc2c(c1)OCO2)c1ccc2c(c1)oc1ccccc12`, the AC50 is 3.98 µM [rising, partial curve]. In the case of `Cc1cccc(CNc2ncnc3ccc(-c4cccc(C#N)c4)cc23)c1` it was 2.51 µM [rising, full curve]; in that of `COc1ccc(-n2c(=O)c(-c3cccs3)nc3cnc(OC)nc32)cc1`, 7.94 µM [rising, partial curve]; in that of `Cc1sc2nc(C3CC3)nc(SCC(=O)NCc3ccco3)c2c1C`, 7.94 µM [rising, partial curve]. Under `COCCCNc1ccnc2c(Cl)cccc12` stands 10 µM [falling, partial curve]; under `CSc1nc(NC(C)C)nc(N2CCOCC2)n1`, 5.01 µM [rising, partial curve]; under `Cc1ccc2cc(CCNC(=O)c3ccc(Br)o3)c(=O)[nH]c2c1`, 3.16 µM [rising, full curve, poor fit]. In the case of `CC(=O)NCCNc1nc(-c2ccccc2Cl)nc2ccccc12` it was 7.94 µM [rising, partial curve]; in that of `COc1ccc(CCN2CCCn3c2nc2c3c(=O)n(Cc3ccccc3F)c(=O)n2C)cc1OC`, 10 µM [rising, partial curve]. Take `COCCn1c(=O)c(-c2ccccc2)nc2cncnc21`: the AC50 was 25.1 µM [rising, single point]. In the case of `COCCn1c(C)cc(C(=O)CSc2nc(C)nc3sc4c(c23)CCC4)c1C` it was 1.26 µM [rising, partial curve]; in that of `COc1ccc(C(=O)c2ccc(OC)c(N)c2)cc1N`, 12.6 µM [rising, single point]; in that of `Cn1c(C(=O)NCC2CCCO2)cc2c(=O)n3ccccc3nc21` (configuration not stated), 1.26 µM [rising, full curve]. Under `CCCn1nnnc1SCC(=O)c1ccc2c(c1)OCCO2` stands 2.51 µM [falling, partial curve]; under `O=C(N1CCN(CCO)CC1)N1c2ccccc2C=Cc2ccccc21`, 5.01 µM [falling, single point].

Turning to `Cc1cc(-n2nc(C)cc2C)nc(N)n1`, the AC50 was 12.6 µM [rising, single point]. In the case of `[O-][N+]1=c2ccc(Nc3ccccc3)cc2=NC12CCCCC2` it was 2.51 µM [falling, full curve]. In the case of `Nc1nc(N)c2nc(CNc3ccc(C(=O)N[C@H](CCC(=O)O)C(=O)O)cc3)cnc2n1` it was 25.1 µM [rising, partial curve]; in that of `CS(=O)(=O)c1ccc2nc(NC(=O)CC3CCCC3)sc2c1`, 12.6 µM [rising, single point]; in that of `CNC(=O)c1nnn(Cc2ccccc2)c1NC(=O)C(F)(F)F`, 1 µM [rising, partial curve, poor fit]. `CCOC(=O)N1CCN(C(=O)c2ccc3c(=O)n(CCC4=CCCCC4)c(=S)[nH]c3c2)CC1`: the AC50 was 5.01 µM [rising, single point]. As for `O=S(=O)(NCc1ccccc1)c1cccc2nonc12`, the AC50 was 0.00794 µM [falling, full curve].

For `C/C=C/Cn1c(N2CCCCCC2)nc2c1c(=O)[nH]c(=O)n2C`, the AC50 is 1.26 µM [rising, full curve]. Under `O=C(CCNS(=O)(=O)c1cccc2nsnc12)NC1CCCc2ccccc21` (configuration not stated) stands 25.1 µM [rising, single point]; under `Cc1noc(C)c1COC(=O)c1ccc2c(c1)OCO2`, 5.01 µM [falling, single point]; under `CCOC(=O)c1cc(C)n(-c2c(C)n(C)n(-c3ccccc3)c2=O)c1C`, 1.26 µM [rising, single point].
